Some of the results follow.
How the values were obtained:
Assay in all cases: glycan array binding signal (z-score within array); higher = stronger binding
Conditions in all cases: glycan notation: IUPAC condensed, linker removed
[1] = target: Gal(b1-3)GlcNAc(b1-3)Gal(b1-4)GlcNAc(b1-2)Man(a1-3)[Gal(b1-3)GlcNAc(b1-3)Gal(b1-4)GlcNAc(b1-2)Man(a1-6)]Man(b1-4)GlcNAc(b1-4)GlcNAc
Summary of the method: (§1)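 Glycan array data came from 3228 arrays in the Consortium for Functional Glycomics database, and only arrays with an available protein sequence were kept. Glycan names were put into IUPAC-condensed notation, and columns mapping to the same glycan were averaged. The binding signal is a within-array Z-score, averaged across arrays of one protein sequence run at different concentrations or buffers and across linkers. A negative Z-score can be read as non-binding.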

[2] = target: Gal(b1-3)GlcNAc(b1-3)Gal(b1-4)GlcNAc(b1-2)[Gal(b1-3)GlcNAc(b1-3)Gal(b1-4)GlcNAc(b1-6)]Man(a1-6)[Gal(b1-3)GlcNAc(b1-3)Gal(b1-4)GlcNAc(b1-2)Man(a1-3)]Man(b1-4)GlcNAc(b1-4)[Fuc(a1-6)]GlcNAc
Summary of the method: as §1

[3] = target: Gal(b1-3)GlcNAc(b1-3)Gal(b1-4)GlcNAc(b1-3)Gal(b1-4)GlcNAc(b1-2)[Gal(b1-3)GlcNAc(b1-3)Gal(b1-4)GlcNAc(b1-3)Gal(b1-4)GlcNAc(b1-6)]Man(a1-6)[Gal(b1-3)GlcNAc(b1-3)Gal(b1-4)GlcNAc(b1-3)Gal(b1-4)GlcNAc(b1-2)Man(a1-3)]Man(b1-4)GlcNAc(b1-4)[Fuc(a1-6)]GlcNAc
Summary of the method: as §1

[4] = target: Gal(b1-3)GlcNAc(b1-3)Gal(b1-4)GlcNAc(b1-6)[Gal(b1-3)GlcNAc(b1-3)]Gal(b1-4)Glc
Summary of the method: as §1

[5] = target: Gal(b1-3)GlcNAc(b1-3)Gal(b1-4)[Fuc(a1-3)]GlcNAc
Summary of the method: as §1

[6] = target: Gal(b1-3)GlcNAc(b1-3)Gal(b1-4)[Fuc(a1-3)]GlcNAc(b1-6)[Gal(b1-3)GlcNAc(b1-3)]Gal(b1-4)Glc
Summary of the method: as §1

[7] = target: Gal(b1-3)GlcNAc(b1-3)GalNAc
Summary of the method: as §1

[8] = target: Gal(b1-3)GlcNAc(b1-6)Gal(b1-4)GlcNAc
Summary of the method: as §1

[9] = target: Gal(b1-3)GlcNAc(b1-6)GalNAc
Summary of the method: as §1

[10] = target: Gal(b1-3)GlcNAc(b1-6)[Gal(b1-3)]GalNAc
Summary of the method: as §1

Gal(b1-3)GlcNAc6S = target: Gal(b1-3)GlcNAc6S
Summary of the method: as §1

[11] = target: Gal(b1-3)[Fuc(a1-4)]GlcNAc
Summary of the method: as §1

[12] = target: Gal(b1-3)[Fuc(a1-4)]GlcNAc(b1-2)Man
Summary of the method: as §1

[13] = target: Gal(b1-3)[Fuc(a1-4)]GlcNAc(b1-2)Man(a1-3)[Gal(b1-3)[Fuc(a1-4)]GlcNAc(b1-2)Man(a1-6)]Man(b1-4)GlcNAc(b1-4)[Fuc(a1-6)]GlcNAc
Summary of the method: as §1

[14] = target: Gal(b1-3)[Fuc(a1-4)]GlcNAc(b1-3)Gal(b1-3)[Fuc(a1-4)]GlcNAc
Summary of the method: as §1

[15] = target: Gal(b1-3)[Fuc(a1-4)]GlcNAc(b1-3)Gal(b1-4)[Fuc(a1-3)]GlcNAc
Summary of the method: as §1

[16] = target: Gal(b1-3)[Fuc(a1-4)]GlcNAc(b1-6)GalNAc
Summary of the method: as §1

[17] = target: Gal(b1-3)[GlcNAc(b1-6)]GalNAc
Summary of the method: as §1

[18] = target: Gal(b1-3)[Neu5Ac(a2-6)]GalNAc
Summary of the method: as §1

[19] = target: Gal(b1-3)[Neu5Ac(a2-6)]GlcNAc(b1-4)Gal(b1-4)Glc
Summary of the method: as §1

[20] = target: Gal(b1-3)[Neu5Ac(b2-6)]GalNAc
Summary of the method: as §1

Gal(b1-4)Gal = target: Gal(b1-4)Gal
Summary of the method: as §1

[21] = target: Gal(b1-4)GalNAc(a1-3)[Fuc(a1-2)]Gal(b1-4)GlcNAc
Summary of the method: as §1

[22] = target: Gal(b1-4)GalNAc(b1-3)[Fuc(a1-2)]Gal(b1-4)GlcNAc
Summary of the method: as §1

Gal(b1-4)Glc = target: Gal(b1-4)Glc
Summary of the method: as §1

Gal(b1-4)Glc6S = target: Gal(b1-4)Glc6S
Summary of the method: as §1

Gal(b1-4)GlcNAc = target: Gal(b1-4)GlcNAc
Summary of the method: as §1

[23] = target: Gal(b1-4)GlcNAc(a1-6)Gal(b1-4)GlcNAc
Summary of the method: as §1

Gal(b1-4)GlcNAc(b1-2)Man = target: Gal(b1-4)GlcNAc(b1-2)Man
Summary of the method: as §1

[24] = target: Gal(b1-4)GlcNAc(b1-2)Man(a1-3)Man(b1-4)GlcNAc(b1-4)GlcNAc
Summary of the method: as §1

[25] = target: Gal(b1-4)GlcNAc(b1-2)Man(a1-3)[Gal(b1-4)GlcNAc(b1-2)Man(a1-6)]Man(b1-4)GlcNAc(b1-4)GlcNAc
Summary of the method: as §1

[26] = target: Gal(b1-4)GlcNAc(b1-2)Man(a1-3)[Gal(b1-4)GlcNAc(b1-2)Man(a1-6)]Man(b1-4)GlcNAc(b1-4)[Fuc(a1-6)]GlcNAc
Summary of the method: as §1

[27] = target: Gal(b1-4)GlcNAc(b1-2)Man(a1-3)[Gal(b1-4)GlcNAc(b1-2)Man(a1-6)][Gal(b1-4)GlcNAc(b1-4)]Man(b1-4)GlcNAc(b1-4)[Fuc(a1-6)]GlcNAc
Summary of the method: as §1

[28] = target: Gal(b1-4)GlcNAc(b1-2)Man(a1-3)[Gal(b1-4)GlcNAc(b1-2)Man(a1-6)][GlcNAc(b1-4)]Man(b1-4)GlcNAc(b1-4)[Fuc(a1-6)]GlcNAc
Summary of the method: as §1

[29] = target: Gal(b1-4)GlcNAc(b1-2)Man(a1-3)[GlcNAc(b1-2)Man(a1-6)]Man(b1-4)GlcNAc(b1-4)GlcNAc
Summary of the method: as §1

[30] = target: Gal(b1-4)GlcNAc(b1-2)Man(a1-3)[GlcNAc(b1-4)][Gal(b1-4)GlcNAc(b1-2)Man(a1-6)]Man(b1-4)GlcNAc(b1-4)GlcNAc
Summary of the method: as §1

[31] = target: Gal(b1-4)GlcNAc(b1-2)Man(a1-3)[Man(a1-6)]Man(b1-4)GlcNAc(b1-4)GlcNAc
Summary of the method: as §1

[32] = target: Gal(b1-4)GlcNAc(b1-2)Man(a1-6)Man(b1-4)GlcNAc(b1-4)GlcNAc
Summary of the method: as §1

B1: Epa2 (Candida glabrata) (protein)
chain: MGSSHHHHHHSSGLVPRGSHMASSKDPTSFPMGCSPQVLKTQPGLAVKLYSYGHPVPGCAYNTYQYPDFPRSGYKKERKLADITGVNGRIDIDLKPNDPCRVLSGNLPSNYNYQNTLTYTNFTMILYGYFQPKVTGYHTFNLEADDLLFMNLGAGNAFDCCRAESTLDNFGNYQSYSIWGTDKATADLTVFLVSGIYYPIRLFYVNRDNNAVLDFSFSTEFNKEIIHDFTSYFFSASDEEQCPGNI
- glycan array binding signal (z-score) [1]: 0.162
- glycan array binding signal (z-score) [2]: 0.811
- glycan array binding signal (z-score) [3]: 0.918
- glycan array binding signal (z-score) [4]: 0.113
- glycan array binding signal (z-score) [5]: -1.45
- glycan array binding signal (z-score) [6]: 0.064
- glycan array binding signal (z-score) [7]: -0.453
- glycan array binding signal (z-score) [8]: 0.047
- glycan array binding signal (z-score) [9]: -0.542
- glycan array binding signal (z-score) [10]: -0.554
- glycan array binding signal (z-score) (Gal(b1-3)GlcNAc6S): -0.1
- glycan array binding signal (z-score) [11]: -0.236
- glycan array binding signal (z-score) [12]: -0.386
- glycan array binding signal (z-score) [13]: 0.301
- glycan array binding signal (z-score) [14]: -0.476
- glycan array binding signal (z-score) [15]: -0.448
- glycan array binding signal (z-score) [16]: 0.152
- glycan array binding signal (z-score) [17]: 0.09
- glycan array binding signal (z-score) [18]: 0.213
- glycan array binding signal (z-score) [19]: 0.015
- glycan array binding signal (z-score) [20]: -0.297
- glycan array binding signal (z-score) (Gal(b1-4)Gal): -0.254
- glycan array binding signal (z-score) [21]: 0.354
- glycan array binding signal (z-score) [22]: 0.003
- glycan array binding signal (z-score) (Gal(b1-4)Glc): -0.356
- glycan array binding signal (z-score) (Gal(b1-4)Glc6S): -0.198
- glycan array binding signal (z-score) (Gal(b1-4)GlcNAc): -0.628
- glycan array binding signal (z-score) [23]: -0.126
- glycan array binding signal (z-score) (Gal(b1-4)GlcNAc(b1-2)Man): -0.312
- glycan array binding signal (z-score) [24]: -0.247
- glycan array binding signal (z-score) [25]: -0.354
- glycan array binding signal (z-score) [26]: -0.25
- glycan array binding signal (z-score) [27]: -0.945
- glycan array binding signal (z-score) [28]: -0.911
- glycan array binding signal (z-score) [29]: -1.06
- glycan array binding signal (z-score) [30]: -0.652
- glycan array binding signal (z-score) [31]: -0.077
- glycan array binding signal (z-score) [32]: -0.416

Reference: the supplement of paper PMC8728848
